# PubChem BioAssay AID248 (DTP/NCI, 2004)
# The list shows only some results of the screen, not a fair sample: it is rich in T/C values a quarter to a half above the control, in often repeated tests (any T/C) and in doses without a T/C. Further doses and runs are listed elsewhere. T/C gives the treated animals as a percentage of the vehicle group. Some doses have a count of surviving animals in place of a T/C: the source files T/C as zero there, which appears to mark a toxic dose or a test without result, not a measured value. Some survivor counts are full or nearly so, which does not show that the dose was tolerated: survival well below the control is almost never listed, so the zero probably covers shortened survival too. Counts of survivors are from the toxicity check (mostly the fifth day) where no day follows; animals may have died later. Schedule codes are those of the source, taken here to give the interval after Q, in days (D) or hours (H), and the number of doses after X. Some entries were tested several times; the results are listed from low to high. Some schedule codes hold Z or #, which are not explained here. For survival time, the PubChem record calls one and a half times the control and up active, and a quarter to a half above the control has no call in these data; cut-offs in other NCI protocols can differ.
# Tested on: L1210 leukemia ip in BDF1 mice, survival T/C
# Test: NCI In Vivo Anticancer Drug Screen. Data for tumor model L1210 Leukemia (intraperitoneal) in B6D2F1 (BDF1) mice
# Conditions: T/C endpoint: mean survival time, higher T/C = longer survival
# [1] = dose: 400.0 mg/kg/injection, schedule: Q01DX001 (ip), vehicle: saline
# [2] = dose: 400.0 mg/kg/injection, schedule: Q01DX009 (ip), vehicle: saline with Tween-80
# [3] = dose: 400.0 mg/kg/injection, schedule: Q01DX009 (ip), vehicle: saline
# [4] = dose: 100.0 mg/kg/injection, schedule: Q01DX009 (ip), vehicle: Klucel (hydroxypropylcellulose) (HPC)
# [5] = dose: 200.0 mg/kg/injection, schedule: Q04DX003 (ip), vehicle: Klucel (hydroxypropylcellulose) (HPC)
# [6] = dose: 400.0 mg/kg/injection, schedule: Q04DX003 (ip), vehicle: Klucel (hydroxypropylcellulose) (HPC)
# [7] = dose: 400.0 mg/kg/injection, schedule: Q01DX009 (ip), vehicle: Klucel (hydroxypropylcellulose) (HPC)
# [8] = dose: 200.0 mg/kg/injection, schedule: Q01DX001 (ip), vehicle: saline
# [9] = dose: 400.0 mg/kg/injection, schedule: Q04DX003 (ip), vehicle: saline with Tween-80
structure (smiles),measurement,setting,value
c1ccc2c(c1)ccc1cc3c4ccccc4c4ccccc4c3cc12,survivor count,"dose: 100.0 mg/kg/injection, schedule: Q01DX001 (ip), vehicle: carboxymethylcellulose (CMC)",4 of 4
CN(C)C1(C(=O)O)c2ccccc2-c2ccccc21,survivor count,[1],2 of 4
[NH-]C(CC(N)=O)C(=O)O.[NH-]C(CC(N)=O)C(=O)O.[Ni+2] (configuration not stated),survivor count,"dose: 50.0 mg/kg/injection, schedule: Q01DX009 (ip), vehicle: water",3 of 6
same,survivor count,"dose: 100.0 mg/kg/injection, schedule: Q01DX009 (ip), vehicle: water",0 of 6
same,survivor count,"dose: 100.0 mg/kg/injection, schedule: Q04DX002 (ip), vehicle: saline",2 of 3
same,survivor count,"dose: 200.0 mg/kg/injection, schedule: Q04DX002 (ip), vehicle: saline",0 of 3
same,survivor count,"dose: 200.0 mg/kg/injection, schedule: Q04DX003 (ip), vehicle: water",1 of 6
same,survivor count,"dose: 400.0 mg/kg/injection, schedule: Q04DX002 (ip), vehicle: saline",0 of 3
same,survivor count,"dose: 400.0 mg/kg/injection, schedule: Q04DX003 (ip), vehicle: water",0 of 6
NC1c2ccccc2CC1C(=O)O (configuration not stated),survivor count,[1],1 of 3
CC(C)(C)N1CCOCC1,survivor count,"dose: 150.0 mg/kg/injection, schedule: Q01DX009 (ip), vehicle: saline with Tween-80",6 of 6
same,survivor count,"dose: 225.0 mg/kg/injection, schedule: Q01DX009 (ip), vehicle: saline with Tween-80",6 of 6
same,survivor count,"dose: 335.0 mg/kg/injection, schedule: Q01DX009 (ip), vehicle: saline with Tween-80",6 of 6
CN(C)c1ccc(/C=N/NC(=O)c2ccc(O)cc2)c(Cl)c1,T/C,"dose: 100.0 mg/kg/injection, schedule: Q01DX009 (ip), vehicle: saline with Tween-80","92, 96, 97, 106 % of control"
same,survivor count,"dose: 200.0 mg/kg/injection, schedule: Q01DX009 (ip), vehicle: saline with Tween-80",3 of 3 and 6 of 6
same,survivor count,[2],2 of 3
CC(=O)Nc1ccc2c(c1)OCO2,survivor count,[2],0 of 6
CN(C)CCN(C)CCN(C)CCN(C)C,survivor count,[3],4 of 6
CCCCCCCCCC/C=N\N=C(N)N,survivor count,"dose: 60.0 mg/kg/injection, schedule: Q01DX Z (ip), vehicle: other",1 of 6
same,survivor count,"dose: 120.0 mg/kg/injection, schedule: Q01DX Z (ip), vehicle: other",0 of 6
CCn1c(O)c(C=N)c(=O)n(CC)c1=O,survivor count,"dose: 200.0 mg/kg/injection, schedule: Q01DX009 (ip), vehicle: saline",4 of 6
same,survivor count,[3],1 of 6
Cc1cc(N=Nc2ccccc2C)ccc1N,survivor count,"dose: 25.0 mg/kg/injection, schedule: Q01DX009 (ip), vehicle: DMSO",4 of 6
same,survivor count,"dose: 50.0 mg/kg/injection, schedule: Q01DX009 (ip), vehicle: DMSO",2 of 6
same,survivor count,"dose: 100.0 mg/kg/injection, schedule: Q04DX003 (ip), vehicle: DMSO",6 of 6
same,survivor count,"dose: 200.0 mg/kg/injection, schedule: Q04DX003 (ip), vehicle: DMSO",4 of 6
same,survivor count,"dose: 400.0 mg/kg/injection, schedule: Q04DX003 (ip), vehicle: DMSO",4 of 6
O=C(COc1ccc(Cl)cc1)Nc1cccnc1,survivor count,[4],2 of 6
same,survivor count,"dose: 100.0 mg/kg/injection, schedule: Q04DX003 (ip), vehicle: Klucel (hydroxypropylcellulose) (HPC)",3 of 6
same,survivor count,[5],2 of 6
same,survivor count,[6],0 of 6
O=C(CC(c1ccccc1)N1CCN(c2ccccc2)CC1)c1ccc(F)cc1 (configuration not stated),survivor count,"dose: 100.0 mg/kg/injection, schedule: Q01DX009 (ip), vehicle: gum acacia",6 of 6
CS(=O)(=O)c1nnc(-c2ccccc2)s1,survivor count,[7],6 of 6
CN=C(N)N(C)NCc1ccccc1,survivor count,[8],1 of 6
same,survivor count,[1],0 of 6
CC(C)C[As](=O)(O)CC(C)C,survivor count,"dose: 100.0 mg/kg/injection, schedule: Q04DX003 (ip), vehicle: saline",2 of 6
CC(C)(C)/C(=N\[N+](C)(C)C)c1ccccc1,survivor count,"dose: 200.0 mg/kg/injection, schedule: Q04DX003 (ip), vehicle: saline",2 of 6
same,survivor count,"dose: 400.0 mg/kg/injection, schedule: Q04DX003 (ip), vehicle: saline",0 of 6
C[N+](C)(CCOc1ccccc1)Cc1cccs1,survivor count,[8],1 of 4
same,survivor count,[1],0 of 4
O=C(O)C1=C(C(=O)O)C2CCC1C2,survivor count,[9],3 of 3
NCCc1ccc(F)cc1,survivor count,[3],0 of 6
CCCC(O)(CCC)CC(=O)OCC,survivor count,"dose: 100.0 mg/kg/injection, schedule: Q04DX003 (ip), vehicle: saline sonified",6 of 6
O=[Se](c1ccccc1)c1ccccc1,survivor count,"dose: 100.0 mg/kg/injection, schedule: Q04DX002 (ip), vehicle: Klucel (hydroxypropylcellulose) (HPC)",1 of 3
same,survivor count,"dose: 200.0 mg/kg/injection, schedule: Q04DX002 (ip), vehicle: Klucel (hydroxypropylcellulose) (HPC)",0 of 3
same,survivor count,"dose: 400.0 mg/kg/injection, schedule: Q04DX002 (ip), vehicle: Klucel (hydroxypropylcellulose) (HPC)",0 of 3
Nc1ccc(OCCNS(=O)(=O)c2ccc(S(=O)(=O)F)cc2)c(Cl)c1,survivor count,[5],1 of 6
same,survivor count,[6],3 of 6
O=C(O)c1scc2c1CCCC2,survivor count,[9],3 of 6
NNc1ncccc1[N+](=O)[O-],survivor count,[1],1 of 4
c1ccc(C(NC2=NCCCCCC2)c2ccco2)cc1 (configuration not stated),survivor count,"dose: 50.0 mg/kg/injection, schedule: Q01DX009 (ip), vehicle: Klucel (hydroxypropylcellulose) (HPC)",1 of 6
same,survivor count,[4],0 of 6
same,survivor count,"dose: 200.0 mg/kg/injection, schedule: Q01DX009 (ip), vehicle: Klucel (hydroxypropylcellulose) (HPC)",0 of 6
same,survivor count,[7],0 of 6
COC1=C(N=[N+]=[N-])C(=O)C(OC)=C(N=[N+]=[N-])C1=O,survivor count,"dose: 16.0 mg/kg/injection, schedule: Q01DX009 (ip), vehicle: carboxymethylcellulose (CMC)",6 of 6
same,survivor count,"dose: 20.0 mg/kg/injection, schedule: Q01DX001 (ip), vehicle: carboxymethylcellulose (CMC)",2 of 4
same,survivor count,"dose: 32.0 mg/kg/injection, schedule: Q01DX009 (ip), vehicle: carboxymethylcellulose (CMC)",0 of 6
same,survivor count,"dose: 40.0 mg/kg/injection, schedule: Q01DX001 (ip), vehicle: carboxymethylcellulose (CMC)",1 of 4 and 3 of 6
same,survivor count,"dose: 64.0 mg/kg/injection, schedule: Q01DX009 (ip), vehicle: carboxymethylcellulose (CMC)",0 of 6
same,survivor count,"dose: 80.0 mg/kg/injection, schedule: Q01DX001 (ip), vehicle: carboxymethylcellulose (CMC)",0 of 6
same,survivor count,"dose: 100.0 mg/kg/injection, schedule: Q01DX001 (ip), vehicle: other",1 of 6
same,survivor count,"dose: 200.0 mg/kg/injection, schedule: Q01DX001 (ip), vehicle: other",0 of 6
same,survivor count,"dose: 215.0 mg/kg/injection, schedule: Q01DX009 (ip), vehicle: saline",5 of 6
same,survivor count,"dose: 215.0 mg/kg/injection, schedule: Q04DX003 (ip), vehicle: saline",5 of 6
same,survivor count,"dose: 330.0 mg/kg/injection, schedule: Q01DX009 (ip), vehicle: saline",0 of 6
same,survivor count,"dose: 400.0 mg/kg/injection, schedule: Q01DX001 (ip), vehicle: other",0 of 6
CN1C2CCC(O)C1CC2 (configuration not stated),survivor count,[1],2 of 4
O=C(O)C1CCCCC1C(=O)Nc1ccc(Cl)cc1 (configuration not stated),survivor count,[9],2 of 6
CCN(CC)c1cccc(N)c1,survivor count,"dose: 200.0 mg/kg/injection, schedule: Q04DX003 (sc), vehicle: olive oil, sesame oil, peanut oil",1 of 6
same,survivor count,"dose: 400.0 mg/kg/injection, schedule: Q04DX003 (sc), vehicle: olive oil, sesame oil, peanut oil",1 of 6
CCN(CC)CCCC(C)Nc1cc(/C=C/c2ccc(Cl)cc2)nc(/C=C/c2ccc(Cl)cc2)n1 (configuration not stated),survivor count,[1],3 of 6
O=C(CC(O)(C(F)(F)F)C(F)(F)F)c1cccc(S(=O)(=O)F)c1,survivor count,[9],5 of 6
